Measured values: PubChem BioAssay (EPA / NIEHS)
Inconclusive means that the source gave no clear call. Such entries were picked first, then a sample of the others. Potencies beside an inconclusive call are fits to weak or partial responses and may not hold up. Calls of active or inactive are those of the source. How the source made its calls: active means hit-call score of the fitted dose curve at least 0.9, where 1 is the maximum; inconclusive means response in the unintended direction; inactive means score below 0.9.

The chains behind the UniProt entries cited, without tags or fusion partners. Where a name states a change or a piece, a line headed by the entry shows the natural chain unless it says otherwise.
UniProt P08219: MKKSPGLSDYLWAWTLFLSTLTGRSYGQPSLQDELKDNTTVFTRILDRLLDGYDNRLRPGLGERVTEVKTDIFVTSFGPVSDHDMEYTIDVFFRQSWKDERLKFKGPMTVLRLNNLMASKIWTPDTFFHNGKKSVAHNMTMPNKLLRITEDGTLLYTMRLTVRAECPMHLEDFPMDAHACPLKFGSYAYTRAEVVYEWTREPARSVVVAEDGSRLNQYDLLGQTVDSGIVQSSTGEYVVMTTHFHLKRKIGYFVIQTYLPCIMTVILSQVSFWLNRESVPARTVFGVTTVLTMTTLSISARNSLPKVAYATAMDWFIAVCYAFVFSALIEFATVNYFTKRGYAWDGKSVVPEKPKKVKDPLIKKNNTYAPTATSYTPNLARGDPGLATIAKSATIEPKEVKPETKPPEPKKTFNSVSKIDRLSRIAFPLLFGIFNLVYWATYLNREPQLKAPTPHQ

What follows are molecules tested against bovine Gamma-Aminobutyric Acid Type A Receptor Agonist (GABAR Agonist), GABRA1 (gene 780973) (UniProt P08219) (assay: NVS_LGIC_bGABAR_Agonist: NovaScreen (NVS) Ligand-Gated Ion Channel Assay for bovine Gamma-Aminobutyric Acid Type A Receptor Agonist (GABAR Agonist) (AID 2283338)).
Experimental: NVS_LGIC_bGABAR_Agonist is a biochemical, single-readout assay that uses extracted gene-proteins from Bovine cerebellar membranes in a tissue-based cell-free assay. Measurements were taken 1 hour after chemical dosing in a 48-well plate.NVS_LGIC_bGABAR_Agonist is one of one assay component(s) measured or calculated from the NVS_LGIC_bGABAR_Agonist assay. It is designed to make measurements of radioligand binding, a form of binding reporter, as detected with scintillation counting signals by Filter-based radiodetection technology.Data from the assay component NVS_LGIC_bGABAR_Agonist was analyzed into 1 assay endpoint. This assay endpoint, NVS_LGIC_bGABAR_Agonist, was analyzed in the positive analysis fitting direction relative to DMSO as the negative control and baseline of activity. Using a type of binding reporter, gain-of-signal activity can be used to understand changes in the binding as they relate to the gene GABRA1. Furthermore, this assay endpoint can be referred to as a primary readout, because the performed assay has only produced 1 assay endpoint. To generalize the intended target to other relatable targets, this assay endpoint is annotated to the ion channel intended target family, where the subfamily is ligand-gated ion channel.
Binding assays used specific radioligands (tritiated, iodinated) with non-radioactive competitive displacement ligands in agonist or antagonist protocols (as indicated) and various reference compounds and inhibitors to titrate specific binding to receptors and transporters. Most enzyme assays (CYPs, kinases, phosphatases, proteases, HDACs) used recombinant protein and specific substrates (fluorescence mostly, some colorimetric and radioactive) and inhibitors, followed by a biochemical separation of substrate and product. All assays for the biochemical HTS were initially run in duplicate at a single concentration (10 uM for CYP450 assays and 25 uM for all others). […] Each assay was run with positive and negative controls, and concurrent controls on every plate. The follow-up (secondary) screen tested active chemical-pairs in concentration series, as well as a few additional assays not tested in the primary screen, some selected negative inactives, and several cases re-run in the concentration series for confirmatory purposes.

| SMILES | AC50 | outcome |
| --- | --- | --- |
| C1CNCCN1 | active: 25 µM | – |
| CCOc1ccc2[nH]cc(C(=O)NCc3ccccc3)c(=O)c2n1 | inconclusive: 0.148 µM | – |
| CC(C)(c1ccc(O)cc1)c1ccc(O)cc1 | inconclusive: 0.231 µM | – |
| COc1cccc(-c2ccc(/C=C\CN3CCCCCC3)cc2Cl)c1 | active: 10.5 µM | – |
| CCc1nc(N)nc(N)c1-c1ccc(Cl)cc1 | active: 8.29 µM | – |
| CC(C)CCCCCCc1ccc(O)cc1 | inconclusive: 0.0396 µM | – |
| Cc1c2ccccc2c(C)c2c1ccc1ccccc12 | inconclusive: 25 µM | – |
| Cc1ccccc1Cl | inconclusive: 0.0401 µM | – |
| CN(C)CCOC(c1ccccc1)c1ccccc1 | – | inactive |
| OC(Cn1cncn1)(Cn1cncn1)c1ccc(F)cc1F | – | inactive |
| Cc1cccc2ccccc12 | – | inactive |
| CCOC(=O)O[C@H](C)OC(=O)c1ccc2c(c1)cc(C(=O)NC1CCN(C(C)C)CC1)n2Cc1cc(-c2ccc(Cl)s2)on1 | active: 11.8 µM | – |
| CCC(C)N(C)C(=O)c1cc2ccccc2c(-c2ccccc2Cl)n1 (centres undefined) | inconclusive: 15.9 µM | – |
| CSc1ccc(Oc2ccc(S(N)(=O)=O)cc2CN(C)C)cc1C | active: 38.8 µM | – |
| Cc1c(C)c2c(c(C)c1O)CCC(C)(COc1ccc(CC3SC(=O)NC3=O)cc1)O2 (centres undefined) | – | inactive |
| COc1nc(C)nc(NC(=O)NS(=O)(=O)c2ccccc2OCCCl)n1 | – | inactive |
| Cc1ccc(C(C)C)cc1 | – | inactive |
| CC(C)(O)c1ccc(CNC(=O)c2cccnc2Oc2ccc3nonc3c2)cc1 | inconclusive: 0.126 µM | – |
| CCCCCCOC(=O)CC(CC(=O)OCCCCCC)(OC(=O)CCC)C(=O)OCCCCCC | – | inactive |

Shown tab-delimited: entries from further up.
SMILES	AC50	outcome
Cc1cccc2ccccc12	–	inactive
Cc1c(C)c2c(c(C)c1O)CCC(C)(COc1ccc(CC3SC(=O)NC3=O)cc1)O2 (centres undefined)	–	inactive
